# Substitutions are numbered along the chain they refer to. No constants are given. Whether binding was seen depends on the method and setting. Binding seen in cells or lysates may run through a third protein. Some binding calls cover weakened binding; strength is not graded here. For some assays here: Tags and fused reporters may be left off the sequences shown.
# Amino acid sequences for entries named in this document (tags omitted).
# UniProt Q14145: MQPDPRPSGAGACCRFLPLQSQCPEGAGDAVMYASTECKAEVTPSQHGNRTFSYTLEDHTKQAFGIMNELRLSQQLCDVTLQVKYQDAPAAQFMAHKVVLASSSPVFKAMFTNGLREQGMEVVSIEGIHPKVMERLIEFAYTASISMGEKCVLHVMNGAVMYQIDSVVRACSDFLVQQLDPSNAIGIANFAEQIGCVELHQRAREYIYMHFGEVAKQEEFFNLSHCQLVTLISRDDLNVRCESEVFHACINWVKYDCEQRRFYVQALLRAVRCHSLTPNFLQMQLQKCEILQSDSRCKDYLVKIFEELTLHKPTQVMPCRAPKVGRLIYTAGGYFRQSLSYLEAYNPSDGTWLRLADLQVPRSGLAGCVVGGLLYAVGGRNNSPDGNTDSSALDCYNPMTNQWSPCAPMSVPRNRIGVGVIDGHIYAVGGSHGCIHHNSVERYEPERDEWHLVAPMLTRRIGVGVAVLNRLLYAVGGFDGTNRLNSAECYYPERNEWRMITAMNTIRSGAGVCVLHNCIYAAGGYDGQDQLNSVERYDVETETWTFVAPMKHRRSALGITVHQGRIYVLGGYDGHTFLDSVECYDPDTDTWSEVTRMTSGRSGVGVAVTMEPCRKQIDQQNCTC
# T1: HA-DPP3 (dipeptidyl peptidase 3, wild type) (human) (UniProt Q9NY33)
# T1 sequence: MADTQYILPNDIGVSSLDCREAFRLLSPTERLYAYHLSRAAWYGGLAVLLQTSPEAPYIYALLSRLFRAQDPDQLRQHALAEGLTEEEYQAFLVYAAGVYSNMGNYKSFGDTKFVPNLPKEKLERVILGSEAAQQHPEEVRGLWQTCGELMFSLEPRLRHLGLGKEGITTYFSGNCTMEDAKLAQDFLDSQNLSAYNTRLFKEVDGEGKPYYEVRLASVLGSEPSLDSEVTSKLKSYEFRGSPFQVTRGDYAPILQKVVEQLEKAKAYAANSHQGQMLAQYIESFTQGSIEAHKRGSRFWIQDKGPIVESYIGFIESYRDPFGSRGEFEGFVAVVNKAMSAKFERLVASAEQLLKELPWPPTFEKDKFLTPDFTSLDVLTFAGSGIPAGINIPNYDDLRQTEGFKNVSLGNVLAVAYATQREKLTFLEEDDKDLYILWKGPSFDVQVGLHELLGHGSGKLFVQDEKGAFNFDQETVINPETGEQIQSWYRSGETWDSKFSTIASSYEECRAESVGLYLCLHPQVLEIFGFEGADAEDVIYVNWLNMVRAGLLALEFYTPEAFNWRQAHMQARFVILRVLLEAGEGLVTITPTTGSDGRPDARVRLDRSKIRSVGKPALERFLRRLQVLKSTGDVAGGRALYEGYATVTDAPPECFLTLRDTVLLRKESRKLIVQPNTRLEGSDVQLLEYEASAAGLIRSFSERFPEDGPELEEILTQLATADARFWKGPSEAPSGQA
# T2: GST-DPP3 (wild type) (human) (UniProt Q9NY33)
# T2 sequence: T1 sequence
# T3: GST-DPP3-E451A (catalytically inactive variant) (human) (UniProt Q9NY33)
# T3 sequence: T1 sequence with E451A
# T4: DPP3-VenusfN chimera (human) (UniProt Q9NY33)
# T4 sequence: T1 sequence
# B1: FLAG-tagged SH2D3C protein isoform 2 (protein, UniProt Q8N5H7-2 1-703)
# chain: MTAVGRRCPALGSRGAAGEPEAGSDYVKFSKEKYILDSSPEKLHKELEEELKLSSTDLRSHAWYHGRIPREVSETLVQRNGDFLIRDSLTSLGDYVLTCRWRNQALHFKINKVVVKAGESYTHIQYLFEQESFDHVPALVRYHVGSRKAVSEQSGAIIYCPVNRTFPLRYLEASYGLGQGSSKPASPVSPSGPKGSHMKRRSVTMTDGLTADKVTRSDGCPTSTSLPRPRDSIRSCALSMDQIPDLHSPMSPISESPSSPAYSTVTRVHAAPAAPSATALPASPVARRSSEPQLCPGSAPKTHGESDKGPHTSPSHTLGKASPSPSLSSYSDPDSGHYCQLQPPVRGSREWAATETSSQQARSYGERLKELSENGAPEGDWGKTFTVPIVEVTSSFNPATFQSLLIPRDNRPLEVGLLRKVKELLAEVDARTLARHVTKVDCLVARILGVTKEMQTLMGVRWGMELLTLPHGRQLRLDLLERFHTMSIMLAVDILGCTGSAEERAALLHKTIQLAAELRGTMGNMFSFAAVMGALDMAQISRLEQTWVTLRQRHTEGAILYEKKLKPFLKSLNEGKEGPPLSNTTFPHVLPLITLLECDSAPPEGPEPWGSTEHGVEVVLAHLEAARTVAHHGGLYHTNAEVKLQGFQARPELLEVFSTEFQMRLLWGSQGASSSQARRYEKFDKVLTALSHKLEPAVRSSEL
# B2: SH2D3C-VenusfC chimera (isoform 1) (protein, UniProt Q8N5H7 1-860)
# chain: MTEGTKKTSKKFKFFKFKGFGSLSNLPRSFTLRRSSASISRQSHLEPDTFEATQDDMVTVPKSPPAYARSSDMYSHMGTMPRPSIKKAQNSQAARQAQEAGPKPNLVPGGVPDPPGLEAAKEVMVKATGPLEDTPAMEPNPSAVEVDPIRKPEVPTGDVEEERPPRDVHSERAAGEPEAGSDYVKFSKEKYILDSSPEKLHKELEEELKLSSTDLRSHAWYHGRIPREVSETLVQRNGDFLIRDSLTSLGDYVLTCRWRNQALHFKINKVVVKAGESYTHIQYLFEQESFDHVPALVRYHVGSRKAVSEQSGAIIYCPVNRTFPLRYLEASYGLGQGSSKPASPVSPSGPKGSHMKRRSVTMTDGLTADKVTRSDGCPTSTSLPRPRDSIRSCALSMDQIPDLHSPMSPISESPSSPAYSTVTRVHAAPAAPSATALPASPVARRSSEPQLCPGSAPKTHGESDKGPHTSPSHTLGKASPSPSLSSYSDPDSGHYCQLQPPVRGSREWAATETSSQQARSYGERLKELSENGAPEGDWGKTFTVPIVEVTSSFNPATFQSLLIPRDNRPLEVGLLRKVKELLAEVDARTLARHVTKVDCLVARILGVTKEMQTLMGVRWGMELLTLPHGRQLRLDLLERFHTMSIMLAVDILGCTGSAEERAALLHKTIQLAAELRGTMGNMFSFAAVMGALDMAQISRLEQTWVTLRQRHTEGAILYEKKLKPFLKSLNEGKEGPPLSNTTFPHVLPLITLLECDSAPPEGPEPWGSTEHGVEVVLAHLEAARTVAHHGGLYHTNAEVKLQGFQARPELLEVFSTEFQMRLLWGSQGASSSQARRYEKFDKVLTALSHKLEPAVRSSEL
# B3: VenusfC-SH2D3C chimera (isoform 1) (protein, UniProt Q8N5H7 1-860)
# chain: B2 chain
# B4: FLAG-tagged SH2D3C protein isoform 3 (protein, UniProt Q8N5H7-3 1-506)
# chain: MKRRSVTMTDGLTADKVTRSDGCPTSTSLPRPRDSIRSCALSMDQIPDLHSPMSPISESPSSPAYSTVTRVHAAPAAPSATALPASPVARRSSEPQLCPGSAPKTHGESDKGPHTSPSHTLGKASPSPSLSSYSDPDSGHYCQLQPPVRGSREWAATETSSQQARSYGERLKELSENGAPEGDWGKTFTVPIVEVTSSFNPATFQSLLIPRDNRPLEVGLLRKVKELLAEVDARTLARHVTKVDCLVARILGVTKEMQTLMGVRWGMELLTLPHGRQLRLDLLERFHTMSIMLAVDILGCTGSAEERAALLHKTIQLAAELRGTMGNMFSFAAVMGALDMAQISRLEQTWVTLRQRHTEGAILYEKKLKPFLKSLNEGKEGPPLSNTTFPHVLPLITLLECDSAPPEGPEPWGSTEHGVEVVLAHLEAARTVAHHGGLYHTNAEVKLQGFQARPELLEVFSTEFQMRLLWGSQGASSSQARRYEKFDKVLTALSHKLEPAVRSSEL
# B5: FLAG-tagged SH2D3C C-terminal Ras GEF-like domain (f539) (domain or fragment, UniProt Q8N5H7 539-860)
# chain: GKTFTVPIVEVTSSFNPATFQSLLIPRDNRPLEVGLLRKVKELLAEVDARTLARHVTKVDCLVARILGVTKEMQTLMGVRWGMELLTLPHGRQLRLDLLERFHTMSIMLAVDILGCTGSAEERAALLHKTIQLAAELRGTMGNMFSFAAVMGALDMAQISRLEQTWVTLRQRHTEGAILYEKKLKPFLKSLNEGKEGPPLSNTTFPHVLPLITLLECDSAPPEGPEPWGSTEHGVEVVLAHLEAARTVAHHGGLYHTNAEVKLQGFQARPELLEVFSTEFQMRLLWGSQGASSSQARRYEKFDKVLTALSHKLEPAVRSSEL
# Key:
# [1] = molecular target: T1, HA-DPP3 (dipeptidyl peptidase 3, wild type) (human); experiment: co-IP; anti-HA agarose beads precipitate HA-DPP3 from lysates of TRex HEK293T cells (doxycycline-induced) transiently expressing the FLAG-tagged prey; lysis buffer 50 mM Tris pH 7.5, 75 mM NaCl, 1 mM EDTA, 0.1% Triton X-100; 4 °C, 2-3 h; anti-FLAG Western blot
# [2] = molecular target: T2, GST-DPP3 (wild type) (human); experiment: pull-down; GST fusion bound to glutathione-agarose beads, mixed with HEK293T lysate (PBS/1% NP-40) with the FLAG-tagged prey; 1 h at room temperature; anti-FLAG Western blot; only the target purified
# [3] = molecular target: T3, GST-DPP3-E451A (catalytically inactive variant) (human); experiment: as above
# [4] = molecular target: T4, DPP3-VenusfN chimera (human); experiment: split reporter; BiFC with Venus fragments (N-terminal 158 aa, C-terminal 82 aa), live NIH 3T3 cells transiently transfected, confocal microscopy
Molecule,binding [1],binding [2],binding [3],binding [4]
FLAG-KEAP1 (Kelch-like ECH-associated protein 1) (from UniProt Q14145 1-624),binds,,,
B1,binds,binds,binds,
B2,,,,binds
B3,,,,binds
B4,binds,binds,binds,
B5,,binds,binds,
